Laboratory results as given in patent US20070004721A1, “Pteridine derivatives for the treatment of septic shock and tnf-a-related diseases” (priority 2003, published 2007).
For at least one compound, name, drawing or mass did not settle the structure.

Test system: human TNF-α
Test: TNF-α assay: suppression of TNF-α production by LPS-stimulated PBMC (sandwich ELISA)
Format: cell-based
Conditions: LPS 1 μg/ml, 72 hours at 37° C.
Protocol: Peripheral blood mononuclear cells (herein referred as PBMC), in response to stimulation by lipopolysaccharide (LPS), a gram-negative bacterial endotoxin, produce various […], in particular human TNF-α and IL-1β. The inhibition of the activation of PBMC can be measured by the level of suppression of the production of TNF-α or IL-1β by PBMC in response to stimulation by LPS.
Such inhibition measurement was performed as follows: PBMC were isolated from heparinized peripheral blood (Buffy coat) by density gradient centrifugation. LPS is then added to the PMBC suspension in complete medium (10^6 cells/ml) at a final concentration of 1 μg/ml. The pteridine derivative to be tested was added at different dilution levels, and the cells were incubated at 37° C. for 72 hours. The supernatants were collected, and TNF-α or IL-1β concentrations were measured with respectively an anti-TNF antibody or an anti-IL-1β antibody in a sandwich ELISA (Duo Set ELISA human TNFα, commercially available from R&D Systems, United Kingdom). The colorimetric reading of the ELISA was measured by a Multiskan RC plate reader (commercially available from ThermoLabsystems, Finland) at 450 nm (reference wavelength: 690 nm). […] (also from ThermoLabsystems, Finland): a standard curve (recombinant human TNFα) was drawn and the amount (pg/ml) of each sample on the standard curve was determined. […]

CCOc1nc(N)nc2ncc(-c3ccc(SC)cc3)nc12 [Example 81, 2-amino-6-(p-thiomethylphenyl)-4-ethoxy-pteridine]
IC50: 10 µM
